This is a selection; strong and weak results do not stand in their true shares. Calls are pooled over several reports, among them a noisy single-well screen. This is one part of the list.
Assays:
Details in all cases: stereoisomer not certain
[1] = biological target: T1, OR6C2 (Homo sapiens) (UniProt Q9NZP2)
T1 sequence (whole entry): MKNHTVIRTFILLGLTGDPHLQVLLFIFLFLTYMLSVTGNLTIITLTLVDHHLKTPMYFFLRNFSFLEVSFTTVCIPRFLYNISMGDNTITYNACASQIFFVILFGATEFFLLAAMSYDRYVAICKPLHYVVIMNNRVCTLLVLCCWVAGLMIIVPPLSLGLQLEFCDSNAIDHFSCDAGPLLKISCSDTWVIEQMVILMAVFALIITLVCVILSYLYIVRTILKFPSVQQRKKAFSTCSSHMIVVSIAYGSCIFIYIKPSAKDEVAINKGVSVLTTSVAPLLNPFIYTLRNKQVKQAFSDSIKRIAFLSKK
Method in brief: (§1)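 Whether a receptor–molecule pair is responsive (active) rests on the original authors' judgment that its measured signal was statistically different from baseline. Pairs without that judgment are non-responsive (inactive). Sources used varied assay methods, commonly transient luciferase assays in mammalian cell lines.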

[2] = biological target: T2, OR6C3 (Homo sapiens) (UniProt Q9NZP0)
T2 sequence (whole entry): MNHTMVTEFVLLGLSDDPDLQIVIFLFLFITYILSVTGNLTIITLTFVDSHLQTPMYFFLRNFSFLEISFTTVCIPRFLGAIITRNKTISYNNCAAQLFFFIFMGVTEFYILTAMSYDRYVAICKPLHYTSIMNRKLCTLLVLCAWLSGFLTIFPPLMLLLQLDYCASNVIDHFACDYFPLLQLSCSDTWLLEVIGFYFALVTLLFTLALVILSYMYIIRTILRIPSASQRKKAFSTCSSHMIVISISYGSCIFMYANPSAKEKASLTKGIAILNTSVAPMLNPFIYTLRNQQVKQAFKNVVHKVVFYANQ
Method in brief: as §1

[3] = system: T3, OR6C4
T3 sequence (whole entry): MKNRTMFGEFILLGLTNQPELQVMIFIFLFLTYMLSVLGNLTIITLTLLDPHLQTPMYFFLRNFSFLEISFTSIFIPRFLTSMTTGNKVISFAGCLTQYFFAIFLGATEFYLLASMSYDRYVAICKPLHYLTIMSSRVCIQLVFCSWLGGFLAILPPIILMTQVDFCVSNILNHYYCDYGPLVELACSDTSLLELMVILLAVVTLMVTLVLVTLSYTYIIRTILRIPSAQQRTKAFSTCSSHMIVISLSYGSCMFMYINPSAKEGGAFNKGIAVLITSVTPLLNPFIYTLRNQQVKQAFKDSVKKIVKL
Method in brief: as §1

[4] = biological target: T4, OR6C6 (Homo sapiens) (UniProt A6NF89)
T4 sequence (whole entry): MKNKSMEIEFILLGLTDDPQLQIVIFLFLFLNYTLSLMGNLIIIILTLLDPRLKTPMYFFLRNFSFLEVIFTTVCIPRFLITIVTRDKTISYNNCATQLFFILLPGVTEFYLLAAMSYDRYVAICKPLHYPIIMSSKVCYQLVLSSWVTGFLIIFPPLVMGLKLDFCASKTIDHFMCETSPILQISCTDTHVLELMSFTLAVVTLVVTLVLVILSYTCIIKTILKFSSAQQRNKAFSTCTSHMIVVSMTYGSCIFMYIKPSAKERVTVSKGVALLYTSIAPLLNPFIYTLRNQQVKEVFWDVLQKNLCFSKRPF
Method in brief: as §1

[5] = biological target: T5, OR6C65 (Homo sapiens) (UniProt A6NJZ3)
T5 sequence (whole entry): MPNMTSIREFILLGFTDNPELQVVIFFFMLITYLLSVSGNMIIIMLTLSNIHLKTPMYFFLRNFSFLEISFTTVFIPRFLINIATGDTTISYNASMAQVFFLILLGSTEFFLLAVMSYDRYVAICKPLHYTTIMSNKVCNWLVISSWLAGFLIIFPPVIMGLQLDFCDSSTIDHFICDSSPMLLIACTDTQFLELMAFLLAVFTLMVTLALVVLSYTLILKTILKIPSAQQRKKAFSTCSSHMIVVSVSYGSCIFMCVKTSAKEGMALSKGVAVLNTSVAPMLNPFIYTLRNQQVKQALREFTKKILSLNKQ
Method in brief: as §1

[6] = biological target: T6, OR6C74 (Homo sapiens) (UniProt A6NCV1)
T6 sequence (whole entry): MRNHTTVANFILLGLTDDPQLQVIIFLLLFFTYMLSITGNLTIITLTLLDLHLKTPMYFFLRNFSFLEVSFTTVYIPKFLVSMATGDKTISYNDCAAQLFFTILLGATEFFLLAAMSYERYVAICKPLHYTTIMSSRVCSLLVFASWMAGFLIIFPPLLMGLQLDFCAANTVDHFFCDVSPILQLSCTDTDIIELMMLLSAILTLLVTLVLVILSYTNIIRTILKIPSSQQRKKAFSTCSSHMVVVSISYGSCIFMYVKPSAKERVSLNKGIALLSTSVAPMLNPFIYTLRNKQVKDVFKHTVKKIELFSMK
Method in brief: as §1

[7] = biological target: T7, OR6C75 (Homo sapiens) (UniProt A6NL08)
T7 sequence (whole entry): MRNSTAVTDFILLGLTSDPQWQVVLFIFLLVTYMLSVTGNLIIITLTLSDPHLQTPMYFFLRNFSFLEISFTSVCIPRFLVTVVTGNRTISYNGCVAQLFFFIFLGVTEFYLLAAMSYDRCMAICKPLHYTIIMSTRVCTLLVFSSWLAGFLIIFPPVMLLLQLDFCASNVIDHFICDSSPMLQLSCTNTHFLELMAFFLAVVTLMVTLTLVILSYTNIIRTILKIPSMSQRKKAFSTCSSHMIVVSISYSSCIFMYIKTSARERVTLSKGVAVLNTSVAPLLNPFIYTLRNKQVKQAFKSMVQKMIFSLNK
Method in brief: as §1

[8] = biological target: T8, OR6C76 (Homo sapiens) (UniProt A6NM76)
T8 sequence (whole entry): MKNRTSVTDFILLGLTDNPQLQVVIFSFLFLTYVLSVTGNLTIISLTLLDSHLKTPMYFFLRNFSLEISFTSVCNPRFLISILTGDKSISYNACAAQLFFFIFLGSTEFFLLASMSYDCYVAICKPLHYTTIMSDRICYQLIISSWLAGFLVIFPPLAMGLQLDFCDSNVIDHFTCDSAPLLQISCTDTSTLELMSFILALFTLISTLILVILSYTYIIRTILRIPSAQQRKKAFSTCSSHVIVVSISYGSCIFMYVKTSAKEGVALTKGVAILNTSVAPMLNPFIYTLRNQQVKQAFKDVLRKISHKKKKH
Method in brief: as §1

[9] = biological target: T9, OR6F1 (Homo sapiens) (UniProt Q8NGZ6)
T9 sequence (whole entry): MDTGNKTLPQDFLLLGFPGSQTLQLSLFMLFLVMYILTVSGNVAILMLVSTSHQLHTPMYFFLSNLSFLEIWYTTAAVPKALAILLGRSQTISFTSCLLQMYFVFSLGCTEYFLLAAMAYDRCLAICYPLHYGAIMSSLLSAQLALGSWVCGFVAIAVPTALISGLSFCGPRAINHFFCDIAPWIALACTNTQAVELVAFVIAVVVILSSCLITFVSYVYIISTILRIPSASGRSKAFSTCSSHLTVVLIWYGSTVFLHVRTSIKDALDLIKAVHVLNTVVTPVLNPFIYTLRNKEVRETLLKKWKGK
Method in brief: as §1

[10] = system: T10, OR6J1
T10 sequence (whole entry): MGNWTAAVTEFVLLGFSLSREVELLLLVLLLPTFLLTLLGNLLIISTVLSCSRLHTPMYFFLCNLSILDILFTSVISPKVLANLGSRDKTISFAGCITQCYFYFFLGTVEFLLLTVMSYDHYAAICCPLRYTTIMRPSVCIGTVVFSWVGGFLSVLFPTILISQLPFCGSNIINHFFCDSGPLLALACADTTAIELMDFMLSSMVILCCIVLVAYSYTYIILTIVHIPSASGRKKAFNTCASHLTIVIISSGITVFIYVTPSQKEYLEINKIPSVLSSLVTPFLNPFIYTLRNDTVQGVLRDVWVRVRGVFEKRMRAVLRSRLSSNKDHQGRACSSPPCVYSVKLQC
Method in brief: as §1

Measured: odorant receptor agonist call;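 also: active if original authors judged signal statistically different from baseline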

CCC(C)=O
inactive: all assays above
